PubChem BioAssay AID1508597 | Cure First | 2020
This is a random part of the about 2,100 reagents, in one setting of the screen. 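Calls flag viability under 80% in either arm, not effects specific to rucaparib; the reference for percent is not stated.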 Entries without a mark were called inactive. Not given: the 100% reference.

Purpose: 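Survival screen with siRNA in ovarian cancer cells derived from patients, with or without rucaparib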 (primary screen)
Cells: human ovarian carcinoma lines grown from tumours: OCI-P5x (papillary serous) and OCI-C5x (clear cell)
Knock-down reagent: siRNA pool against human genes, 1.25 pmol siRNA per well
Duration: 72 h or 96 h, depending on the cell culture
Treatment: rucaparib 20 µM (about IC30) or vehicle, present until read-out
Rucaparib or vehicle: Rucaparib
Cell line: OCI-P5x (serous)
Measurement: 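ATP luminescence measured at 72 or 96 h according to the culture, then normalised and expressed as percent viability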
Reading the numbers: viability, normalised: higher = more viable cells remaining
Call rule: 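Active when normalised viability falls below 80 percent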
Meaning of the calls: active = viability under 80%; inactive = viability 80% or more

CAV2 [SID405528068], technical replicate 1
- viability, normalised (%): 82

CAV2 [SID405528068], technical replicate 2
- viability, normalised (%): 79.5 (active)

CAV2 [SID405528068], technical replicate 3
- viability, normalised (%): 72.4 (active)

ERCC6L [SID405528410], technical replicate 1
- viability, normalised (%): 98.5

ERCC6L [SID405528410], technical replicate 2
- viability, normalised (%): 96.6

ERCC6L [SID405528410], technical replicate 3
- viability, normalised (%): 76.3 (active)

UBE2A [SID405528499], technical replicate 1
- viability, normalised (%): 58.7 (active)

UBE2A [SID405528499], technical replicate 2
- viability, normalised (%): 73.6 (active)

UBE2A [SID405528499], technical replicate 3
- viability, normalised (%): 60 (active)

STK16 [SID405527824], technical replicate 1
- viability, normalised (%): 70.7 (active)

STK16 [SID405527824], technical replicate 2
- viability, normalised (%): 54.7 (active)

STK16 [SID405527824], technical replicate 3
- viability, normalised (%): 57.6 (active)

SLIT2 [SID405527319], technical replicate 1
- viability, normalised (%): 40.2 (active)

SLIT2 [SID405527319], technical replicate 2
- viability, normalised (%): 42.4 (active)

SLIT2 [SID405527319], technical replicate 3
- viability, normalised (%): 51 (active)

SMARCA5 [SID405527328], technical replicate 1
- viability, normalised (%): 51.7 (active)

SMARCA5 [SID405527328], technical replicate 2
- viability, normalised (%): 57.2 (active)

SMARCA5 [SID405527328], technical replicate 3
- viability, normalised (%): 44.4 (active)

LSM1 [SID405526961], technical replicate 1
- viability, normalised (%): 53.3 (active)

LSM1 [SID405526961], technical replicate 2
- viability, normalised (%): 69 (active)

LSM1 [SID405526961], technical replicate 3
- viability, normalised (%): 62 (active)

BMX [SID405527720], technical replicate 1
- viability, normalised (%): 98.1

BMX [SID405527720], technical replicate 2
- viability, normalised (%): 79.2 (active)

BMX [SID405527720], technical replicate 3
- viability, normalised (%): 79.9 (active)

MAP2K2 [SID405527827], technical replicate 1
- viability, normalised (%): 88.3

MAP2K2 [SID405527827], technical replicate 2
- viability, normalised (%): 83.8

MAP2K2 [SID405527827], technical replicate 3
- viability, normalised (%): 88.9

MAPK6 [SID405527739], technical replicate 1
- viability, normalised (%): 79.7 (active)

MAPK6 [SID405527739], technical replicate 2
- viability, normalised (%): 80.6

MAPK6 [SID405527739], technical replicate 3
- viability, normalised (%): 62.5 (active)

PCK2 [SID405527826], technical replicate 1
- viability, normalised (%): 96.9

PCK2 [SID405527826], technical replicate 2
- viability, normalised (%): 87.6

PCK2 [SID405527826], technical replicate 3
- viability, normalised (%): 77.4 (active)

SLC2A9 [SID405527315], technical replicate 1
- viability, normalised (%): 51.9 (active)

SLC2A9 [SID405527315], technical replicate 2
- viability, normalised (%): 48.5 (active)

SLC2A9 [SID405527315], technical replicate 3
- viability, normalised (%): 49.9 (active)

TNF [SID405526569], technical replicate 1
- viability, normalised (%): 50 (active)

TNF [SID405526569], technical replicate 2
- viability, normalised (%): 36.3 (active)

TNF [SID405526569], technical replicate 3
- viability, normalised (%): 36.7 (active)

CDKN2A [SID405528475], technical replicate 1
- viability, normalised (%): 51.8 (active)

CDKN2A [SID405528475], technical replicate 2
- viability, normalised (%): 52.2 (active)

CDKN2A [SID405528475], technical replicate 3
- viability, normalised (%): 50.7 (active)
